The supplement of paper PMC5836539
± gives the standard deviation of the averaged measurements. This data set is noisy: repeats of one test often differ as much as different tests do.

Sequences of proteins named here, by UniProt entry; tags and fusion partners are left off. A change or cut given only in a name is not applied to a line headed by its entry.
UniProt Q07955, whole entry, looked up: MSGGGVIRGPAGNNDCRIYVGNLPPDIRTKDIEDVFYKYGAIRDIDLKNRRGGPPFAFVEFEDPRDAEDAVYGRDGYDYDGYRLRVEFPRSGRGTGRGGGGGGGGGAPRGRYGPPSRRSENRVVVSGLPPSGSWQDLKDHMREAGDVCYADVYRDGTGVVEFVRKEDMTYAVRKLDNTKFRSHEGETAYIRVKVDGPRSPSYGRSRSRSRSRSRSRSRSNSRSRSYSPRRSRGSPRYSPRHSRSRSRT
UniProt Q08117: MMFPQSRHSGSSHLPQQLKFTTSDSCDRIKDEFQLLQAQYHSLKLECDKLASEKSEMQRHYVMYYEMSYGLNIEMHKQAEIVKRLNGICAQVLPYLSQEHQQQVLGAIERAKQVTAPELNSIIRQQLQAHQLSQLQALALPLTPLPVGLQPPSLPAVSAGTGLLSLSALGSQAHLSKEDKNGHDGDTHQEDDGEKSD
UniProt Q13247: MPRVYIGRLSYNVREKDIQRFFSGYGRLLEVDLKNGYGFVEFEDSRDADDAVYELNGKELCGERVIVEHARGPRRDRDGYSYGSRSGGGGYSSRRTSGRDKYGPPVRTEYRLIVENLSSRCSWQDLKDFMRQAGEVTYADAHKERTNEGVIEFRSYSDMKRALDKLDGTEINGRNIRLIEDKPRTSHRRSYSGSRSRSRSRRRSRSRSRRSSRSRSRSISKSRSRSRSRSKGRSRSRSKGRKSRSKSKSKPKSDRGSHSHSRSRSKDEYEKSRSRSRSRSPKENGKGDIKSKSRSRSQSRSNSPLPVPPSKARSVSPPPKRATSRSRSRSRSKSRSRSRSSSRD
UniProt Q15139: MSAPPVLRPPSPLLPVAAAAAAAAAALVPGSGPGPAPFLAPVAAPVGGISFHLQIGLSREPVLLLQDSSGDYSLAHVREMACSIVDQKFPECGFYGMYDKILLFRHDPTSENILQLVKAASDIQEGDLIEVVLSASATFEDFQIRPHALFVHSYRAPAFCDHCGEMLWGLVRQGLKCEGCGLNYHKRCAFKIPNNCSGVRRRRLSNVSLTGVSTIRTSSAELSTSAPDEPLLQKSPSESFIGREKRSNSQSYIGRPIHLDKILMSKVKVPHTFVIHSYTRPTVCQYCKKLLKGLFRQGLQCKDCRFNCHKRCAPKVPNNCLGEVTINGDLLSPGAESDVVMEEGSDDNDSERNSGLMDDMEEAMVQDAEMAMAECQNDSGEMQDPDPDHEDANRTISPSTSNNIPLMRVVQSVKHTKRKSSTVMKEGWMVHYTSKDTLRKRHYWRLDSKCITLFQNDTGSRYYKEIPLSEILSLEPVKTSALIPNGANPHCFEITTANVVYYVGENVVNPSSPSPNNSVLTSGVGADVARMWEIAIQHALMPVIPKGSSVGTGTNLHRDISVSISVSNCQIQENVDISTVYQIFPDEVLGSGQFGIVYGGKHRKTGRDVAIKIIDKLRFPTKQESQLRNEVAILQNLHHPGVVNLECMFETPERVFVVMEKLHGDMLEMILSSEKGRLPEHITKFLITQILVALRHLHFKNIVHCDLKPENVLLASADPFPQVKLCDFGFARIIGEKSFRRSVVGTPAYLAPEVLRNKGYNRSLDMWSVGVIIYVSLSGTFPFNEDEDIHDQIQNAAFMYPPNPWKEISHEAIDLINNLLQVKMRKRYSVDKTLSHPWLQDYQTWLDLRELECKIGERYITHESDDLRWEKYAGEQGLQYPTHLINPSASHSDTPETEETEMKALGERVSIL
UniProt Q15149: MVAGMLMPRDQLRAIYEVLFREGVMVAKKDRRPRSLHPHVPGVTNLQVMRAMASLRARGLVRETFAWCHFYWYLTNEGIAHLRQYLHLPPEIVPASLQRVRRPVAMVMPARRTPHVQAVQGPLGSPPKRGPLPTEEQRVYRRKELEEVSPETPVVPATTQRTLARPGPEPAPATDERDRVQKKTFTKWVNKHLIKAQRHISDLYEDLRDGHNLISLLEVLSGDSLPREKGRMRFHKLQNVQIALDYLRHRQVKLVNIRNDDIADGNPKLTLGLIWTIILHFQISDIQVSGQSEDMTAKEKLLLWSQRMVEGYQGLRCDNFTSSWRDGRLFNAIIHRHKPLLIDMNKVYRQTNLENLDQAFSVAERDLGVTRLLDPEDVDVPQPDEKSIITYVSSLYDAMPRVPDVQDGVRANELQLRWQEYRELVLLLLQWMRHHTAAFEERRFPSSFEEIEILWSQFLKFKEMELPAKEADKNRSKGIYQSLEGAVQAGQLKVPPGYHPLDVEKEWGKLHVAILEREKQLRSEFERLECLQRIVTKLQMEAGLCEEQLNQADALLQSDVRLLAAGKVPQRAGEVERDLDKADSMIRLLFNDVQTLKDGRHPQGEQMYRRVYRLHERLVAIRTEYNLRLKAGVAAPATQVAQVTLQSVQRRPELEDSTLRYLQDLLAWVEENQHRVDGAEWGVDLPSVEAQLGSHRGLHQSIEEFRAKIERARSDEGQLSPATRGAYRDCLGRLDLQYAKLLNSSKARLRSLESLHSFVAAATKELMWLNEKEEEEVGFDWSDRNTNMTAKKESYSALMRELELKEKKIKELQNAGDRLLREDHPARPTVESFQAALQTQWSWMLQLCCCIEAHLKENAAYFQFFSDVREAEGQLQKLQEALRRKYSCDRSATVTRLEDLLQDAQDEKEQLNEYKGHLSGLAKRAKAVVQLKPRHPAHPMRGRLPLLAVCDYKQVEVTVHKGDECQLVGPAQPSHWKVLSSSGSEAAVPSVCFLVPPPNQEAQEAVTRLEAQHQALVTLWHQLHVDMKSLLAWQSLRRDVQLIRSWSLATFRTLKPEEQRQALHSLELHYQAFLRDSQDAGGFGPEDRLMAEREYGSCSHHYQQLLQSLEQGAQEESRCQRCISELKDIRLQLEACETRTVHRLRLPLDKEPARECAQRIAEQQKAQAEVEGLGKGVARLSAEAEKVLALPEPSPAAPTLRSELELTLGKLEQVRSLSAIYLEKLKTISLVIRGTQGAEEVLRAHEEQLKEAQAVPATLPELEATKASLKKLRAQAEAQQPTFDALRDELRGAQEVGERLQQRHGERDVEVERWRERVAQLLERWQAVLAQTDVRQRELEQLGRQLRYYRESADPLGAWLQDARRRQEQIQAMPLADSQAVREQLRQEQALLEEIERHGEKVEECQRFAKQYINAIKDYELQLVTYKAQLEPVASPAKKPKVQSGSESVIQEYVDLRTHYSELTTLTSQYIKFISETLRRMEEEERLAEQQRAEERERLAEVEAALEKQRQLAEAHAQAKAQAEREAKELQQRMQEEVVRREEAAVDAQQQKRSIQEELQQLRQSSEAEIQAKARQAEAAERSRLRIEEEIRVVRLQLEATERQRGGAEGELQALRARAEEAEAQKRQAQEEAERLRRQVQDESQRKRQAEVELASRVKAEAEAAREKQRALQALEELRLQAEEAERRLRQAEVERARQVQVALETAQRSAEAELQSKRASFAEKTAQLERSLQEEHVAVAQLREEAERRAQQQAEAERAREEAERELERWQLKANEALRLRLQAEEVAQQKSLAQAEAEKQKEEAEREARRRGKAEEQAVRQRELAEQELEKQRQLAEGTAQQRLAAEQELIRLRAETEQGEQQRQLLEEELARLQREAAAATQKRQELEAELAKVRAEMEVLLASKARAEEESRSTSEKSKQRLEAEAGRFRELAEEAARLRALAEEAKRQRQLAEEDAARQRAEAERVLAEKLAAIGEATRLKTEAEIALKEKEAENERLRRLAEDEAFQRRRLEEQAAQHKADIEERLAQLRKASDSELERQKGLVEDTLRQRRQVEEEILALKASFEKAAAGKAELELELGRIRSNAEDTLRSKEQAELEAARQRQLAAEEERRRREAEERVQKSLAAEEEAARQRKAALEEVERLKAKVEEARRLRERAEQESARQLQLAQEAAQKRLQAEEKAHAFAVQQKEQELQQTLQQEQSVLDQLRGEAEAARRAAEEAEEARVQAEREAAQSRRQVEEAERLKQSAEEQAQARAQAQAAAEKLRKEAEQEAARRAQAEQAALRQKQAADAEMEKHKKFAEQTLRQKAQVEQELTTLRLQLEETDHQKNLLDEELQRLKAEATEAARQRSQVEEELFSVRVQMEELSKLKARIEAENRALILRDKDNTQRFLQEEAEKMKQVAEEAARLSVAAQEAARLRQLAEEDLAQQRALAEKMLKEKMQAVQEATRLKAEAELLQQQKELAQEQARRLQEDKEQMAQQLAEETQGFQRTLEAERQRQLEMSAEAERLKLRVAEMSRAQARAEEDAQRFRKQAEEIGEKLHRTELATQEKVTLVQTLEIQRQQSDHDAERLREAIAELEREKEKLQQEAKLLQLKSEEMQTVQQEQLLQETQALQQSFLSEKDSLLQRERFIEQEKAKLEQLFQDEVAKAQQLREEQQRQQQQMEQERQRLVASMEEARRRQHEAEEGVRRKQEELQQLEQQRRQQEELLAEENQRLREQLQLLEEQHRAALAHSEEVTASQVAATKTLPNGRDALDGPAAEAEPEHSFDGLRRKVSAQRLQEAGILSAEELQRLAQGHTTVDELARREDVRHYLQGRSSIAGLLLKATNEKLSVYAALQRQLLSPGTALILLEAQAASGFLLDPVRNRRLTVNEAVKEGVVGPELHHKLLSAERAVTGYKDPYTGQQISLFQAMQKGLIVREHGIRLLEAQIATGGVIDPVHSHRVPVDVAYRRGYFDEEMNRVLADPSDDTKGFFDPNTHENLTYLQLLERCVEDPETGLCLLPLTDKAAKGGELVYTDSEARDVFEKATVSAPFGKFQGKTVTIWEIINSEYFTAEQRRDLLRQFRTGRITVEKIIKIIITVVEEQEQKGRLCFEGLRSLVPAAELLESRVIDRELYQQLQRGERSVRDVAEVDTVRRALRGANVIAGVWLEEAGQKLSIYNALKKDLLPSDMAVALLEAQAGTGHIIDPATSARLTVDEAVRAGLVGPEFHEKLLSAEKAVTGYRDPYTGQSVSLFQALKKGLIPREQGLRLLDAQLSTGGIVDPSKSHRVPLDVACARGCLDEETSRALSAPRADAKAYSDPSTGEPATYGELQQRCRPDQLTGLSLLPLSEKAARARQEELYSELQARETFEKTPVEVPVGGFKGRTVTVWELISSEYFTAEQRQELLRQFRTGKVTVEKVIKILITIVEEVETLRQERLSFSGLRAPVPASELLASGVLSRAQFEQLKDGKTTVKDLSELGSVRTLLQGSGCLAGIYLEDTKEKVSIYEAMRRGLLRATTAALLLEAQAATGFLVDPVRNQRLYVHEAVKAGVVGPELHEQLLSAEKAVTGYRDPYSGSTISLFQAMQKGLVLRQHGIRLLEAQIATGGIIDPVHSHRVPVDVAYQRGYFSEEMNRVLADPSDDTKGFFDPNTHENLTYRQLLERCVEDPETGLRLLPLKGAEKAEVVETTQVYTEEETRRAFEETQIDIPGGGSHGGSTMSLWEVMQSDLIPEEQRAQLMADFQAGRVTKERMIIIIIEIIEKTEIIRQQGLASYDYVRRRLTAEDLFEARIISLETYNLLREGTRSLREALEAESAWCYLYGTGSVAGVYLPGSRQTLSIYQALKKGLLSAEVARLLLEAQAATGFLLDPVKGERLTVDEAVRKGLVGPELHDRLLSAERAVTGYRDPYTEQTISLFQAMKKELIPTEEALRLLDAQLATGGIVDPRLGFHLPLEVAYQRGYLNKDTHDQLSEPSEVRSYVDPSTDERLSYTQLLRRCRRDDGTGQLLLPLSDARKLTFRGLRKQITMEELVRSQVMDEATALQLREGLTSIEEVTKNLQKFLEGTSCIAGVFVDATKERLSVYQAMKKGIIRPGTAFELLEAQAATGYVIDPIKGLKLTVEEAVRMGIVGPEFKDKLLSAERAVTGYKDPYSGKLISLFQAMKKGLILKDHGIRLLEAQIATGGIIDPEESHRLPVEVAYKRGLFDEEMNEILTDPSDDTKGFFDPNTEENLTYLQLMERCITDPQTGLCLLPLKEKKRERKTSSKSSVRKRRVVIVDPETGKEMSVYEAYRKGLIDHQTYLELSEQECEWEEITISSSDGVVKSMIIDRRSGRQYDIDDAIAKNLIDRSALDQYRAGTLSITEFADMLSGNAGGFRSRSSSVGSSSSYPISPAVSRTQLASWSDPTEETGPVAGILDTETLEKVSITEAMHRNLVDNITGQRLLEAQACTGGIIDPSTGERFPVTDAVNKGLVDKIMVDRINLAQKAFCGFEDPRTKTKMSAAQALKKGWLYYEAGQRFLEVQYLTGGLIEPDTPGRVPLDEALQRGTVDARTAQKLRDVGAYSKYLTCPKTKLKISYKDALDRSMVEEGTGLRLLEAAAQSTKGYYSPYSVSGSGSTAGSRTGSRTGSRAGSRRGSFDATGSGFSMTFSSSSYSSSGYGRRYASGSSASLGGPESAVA

Compound: CC[C@@H](C)Nc1cc(C(=O)N[C@H]2C[C@H]3CC[C@@H](C2)N3c2ccc(C(=O)C3CC3)cn2)c(C)cc1C(N)=O [XL888]
Assay: phosphopeptide melting temperature shift (XL888 minus DMSO); higher = stabilised by drug treatment
Details: 100 µM; treatment time 2 h; layout: intact cells; SK-Mel 28
Protocol: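 Phospho-TPP in intact SK-Mel 28 cells treated with 100 uM XL888 or DMSO for 2 h, heated at 10 temperatures (37-67 C) for 3 min, soluble fraction TMT10plex-labelled and TiO2 phospho-enriched. Melting curves were fitted per phosphopeptide; the value is the melting point difference (drug minus vehicle) in each of two biological replicates.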

| Target | phosphopeptide melting temperature shift [°C] |
| --- | --- |
| UniProt Q641Q2-2_phosphosite_539 (phosphosite position: 539) | 0.375 |
| UniProt Q641Q2-2_phosphosite_619 (phosphosite position: 619) | 0.468 |
| UniProt Q641Q2-2_phosphosite_620 (phosphosite position: 620) | -0.191 ± 0.27 |
| UniProt Q641Q2-2_phosphosite_1158 (phosphosite position: 1158) | -0.193 ± 0.56 |
| UniProt Q641Q2-2_phosphosite_1159 (phosphosite position: 1159) | 0.664 |
| UniProt Q709C8-3_phosphosite_3598 (phosphosite position: 3598) | 3.97 |
| UniProt Q01484-5_phosphosite_10 (phosphosite position: 10) | -0.163 |
| UniProt Q01484-5_phosphosite_825 (phosphosite position: 825) | 1.06 ± 0.37 |
| UniProt Q01484-5_phosphosite_1729 (phosphosite position: 1729) | 2.48 ± 0.7 |
| UniProt Q01484-5_phosphosite_1815 (phosphosite position: 1815) | 0.0837 |
| UniProt Q01518-2_phosphosite_309 (phosphosite position: 309) | 0.00411 ± 0.49 |
| UniProt Q01804-5_phosphosite_958 (phosphosite position: 958) | 1.46 |
| UniProt Q01831-2_phosphosite_846 (phosphosite position: 846) | 2.86 |
| UniProt Q01831-2_phosphosite_847 (phosphosite position: 847) | 2.86 |
| UniProt Q02750_phosphosite_386 (phosphosite position: 386) | 2.17 |
| UniProt Q02880-2_phosphosite_1576 (phosphosite position: 1576) | 0.905 ± 0.6 |
| UniProt Q05209-2_phosphosite_457 (phosphosite position: 457) | -0.359 ± 0.83 |
| UniProt Q05209-2_phosphosite_458 (phosphosite position: 458) | 0.454 ± 0.56 |
| UniProt Q05209-2_phosphosite_473 (phosphosite position: 473) | 1.54 ± 1.2 |
| UniProt Q05209-2_phosphosite_476 (phosphosite position: 476) | 1.54 ± 1.2 |
| UniProt Q05209-2_phosphosite_478 (phosphosite position: 478) | 0.635 |
| UniProt Q05655_phosphosite_304 (phosphosite position: 304) | -0.184 |
| UniProt Q07866-6_phosphosite_524 (phosphosite position: 524) | -0.47 |
| UniProt Q07955_phosphosite_234 (phosphosite position: 234) | 0.626 |
| UniProt Q07955_phosphosite_238 (phosphosite position: 238) | -4.13 |
| UniProt Q08117_phosphosite_196 (phosphosite position: 196) | 1.76 ± 0.92 |

| Target | phosphopeptide melting temperature shift [°C] |
| --- | --- |
| UniProt Q08170_phosphosite_269 (phosphosite position: 269) | 0.129 ± 0.021 |
| UniProt Q08170_phosphosite_431 (phosphosite position: 431) | 0.182 ± 1.9 |
| UniProt Q08378-2_phosphosite_389 (phosphosite position: 389) | -0.379 |
| UniProt Q12851-2_phosphosite_328 (phosphosite position: 328) | -0.397 ± 0.18 |
| UniProt Q12929_phosphosite_685 (phosphosite position: 685) | -0.0739 ± 1.2 |
| UniProt Q13017-2_phosphosite_590 (phosphosite position: 590) | 0.813 ± 0.34 |
| UniProt Q13017-2_phosphosite_1173 (phosphosite position: 1173) | 2.53 |
| UniProt Q13017-2_phosphosite_1176 (phosphosite position: 1176) | 2.53 |
| UniProt Q13017-2_phosphosite_1195 (phosphosite position: 1195) | 0.00693 ± 0.66 |
| UniProt Q13033-2_phosphosite_257 (phosphosite position: 257) | 0.729 ± 0.21 |
| UniProt Q13136-2_phosphosite_242 (phosphosite position: 242) | 2.2 |
| UniProt Q13136-2_phosphosite_244 (phosphosite position: 244) | 1.03 |
| UniProt Q13136-2_phosphosite_708 (phosphosite position: 708) | 0.594 ± 0.66 |
| UniProt Q13188_phosphosite_316 (phosphosite position: 316) | 1.69 ± 0.48 |
| UniProt Q13247_phosphosite_314 (phosphosite position: 314) | 1.08 ± 2.4 |
| UniProt Q13247_phosphosite_316 (phosphosite position: 316) | 1.08 ± 2.4 |
| UniProt Q13409-3_phosphosite_81 (phosphosite position: 81) | 2.01 ± 1.1 |
| UniProt Q13425-2_phosphosite_233 (phosphosite position: 233) | 1.58 |
| UniProt Q13428-6_phosphosite_171 (phosphosite position: 171) | -0.258 ± 0.17 |
| UniProt Q13439-5_phosphosite_41 (phosphosite position: 41) | 3.39 |
| UniProt Q13439-5_phosphosite_93 (phosphosite position: 93) | 2.42 |
| UniProt Q13469-3_phosphosite_227 (phosphosite position: 227) | 0.861 |
| UniProt Q13469-3_phosphosite_343 (phosphosite position: 343) | 2.48 |
| UniProt Q13563-3_phosphosite_756 (phosphosite position: 756) | -2.5 |
| UniProt Q14004-2_phosphosite_437 (phosphosite position: 437) | -0.549 ± 1.6 |
| UniProt Q14004-2_phosphosite_439 (phosphosite position: 439) | -0.549 ± 1.6 |

Part of the list above, field by field.
UniProt Q13247_phosphosite_316 (phosphosite position: 316)
  phosphopeptide melting temperature shift [°C]: 1.08 ± 2.4
UniProt Q13409-3_phosphosite_81 (phosphosite position: 81)
  phosphopeptide melting temperature shift [°C]: 2.01 ± 1.1

2 entries from above, set out differently.
Target	phosphopeptide melting temperature shift [°C]
UniProt Q13017-2_phosphosite_590 (phosphosite position: 590)	0.813 ± 0.34
UniProt Q13017-2_phosphosite_1173 (phosphosite position: 1173)	2.53

Later entries:

| Target | phosphopeptide melting temperature shift [°C] |
| --- | --- |
| UniProt Q14157-4_phosphosite_447 (phosphosite position: 447) | 2.47 ± 1.3 |
| UniProt Q14160-2_phosphosite_423 (phosphosite position: 423) | -1.69 |
| UniProt Q14161-5_phosphosite_394 (phosphosite position: 394) | 5.69 |
| UniProt Q14161-5_phosphosite_397 (phosphosite position: 397) | 5.69 |
| UniProt Q14195-2_phosphosite_622 (phosphosite position: 622) | 0.107 |
| UniProt Q14671-2_phosphosite_683 (phosphosite position: 683) | 0.21 |
| UniProt Q14676-3_phosphosite_376 (phosphosite position: 376) | 4.82 ± 1.1 |
| UniProt Q14676-3_phosphosite_402 (phosphosite position: 402) | 1.2 |
| UniProt Q14676-3_phosphosite_404 (phosphosite position: 404) | 1.2 |
| UniProt Q14676-3_phosphosite_453 (phosphosite position: 453) | 4.89 |
| UniProt Q14676-3_phosphosite_455 (phosphosite position: 455) | 4.53 ± 0.51 |
| UniProt Q14677-2_phosphosite_209 (phosphosite position: 209) | 2.69 ± 0.56 |
| UniProt Q14677-2_phosphosite_214 (phosphosite position: 214) | 6.77 |
| UniProt Q14678-2_phosphosite_28 (phosphosite position: 28) | 3.22 |
| UniProt Q14678-2_phosphosite_167 (phosphosite position: 167) | -0.177 |
| UniProt Q14938-6_phosphosite_272 (phosphosite position: 272) | 0.206 ± 0.29 |
| UniProt Q15054-3_phosphosite_201 (phosphosite position: 201) | 0.8 ± 0.77 |
| UniProt Q15139_phosphosite_205 (phosphosite position: 205) | -2 ± 1.9 |
| UniProt Q15139_phosphosite_208 (phosphosite position: 208) | 2.03 |
| UniProt Q15139_phosphosite_397 (phosphosite position: 397) | 0.42 |
| UniProt Q15149_phosphosite_125 (phosphosite position: 125) | 2.87 |
| UniProt Q15149_phosphosite_149 (phosphosite position: 149) | -0.546 |
| UniProt Q15149_phosphosite_1435 (phosphosite position: 1435) | 0.966 ± 0.3 |
| UniProt Q15149_phosphosite_4382 (phosphosite position: 4382) | -0.487 ± 0.85 |
